These are yes or no findings as the source states them, for the method shown. Binding seen in cells or lysates may run through a third protein. A result given as binding can be weak or reduced; the word gives no strength. Tags and fused reporters may be left off the sequences shown.
Biological target: RFP-RNF26 ΔRING
Assay: co-IP; U2OS co-transfected with RFP-RNF26 variants and HA-HERP1 or HA-HRD1; lysis in 1% DMNG, 150 mM NaCl, 50 mM Tris-HCl pH 7.5, 5 mM MgCl2; RFP-TRAP beads; western blot

B1: HA-HERP1 (protein, UniProt Q15011 1-391)
chain: MESETEPEPVTLLVKSPNQRHRDLELSGDRGWSVGHLKAHLSRVYPERPRPEDQRLIYSGKLLLDHQCLRDLLPKQEKRHVLHLVCNVKSPSKMPEINAKVAESTEEPAGSNRGQYPEDSSSDGLRQREVLRNLSSPGWENISRPEAAQQAFQGLGPGFSGYTPYGWLQLSWFQQIYARQYYMQYLAATAASGAFVPPPSAQEIPVVSAPAPAPIHNQFPAENQPANQNAAPQVVVNPGANQNLRMNAQGGPIVEEDDEINRDWLDWTYSAATFSVFLSILYFYSSLSRFLMVMGATVVMYLHHVGWFPFRPRPVQNFPNDGPPPDVVNQDPNNNLQEGTDPETEDPNHLPPDRDVLDGEQTSPSFMSTAWLVFKTFFASLLPEGPPAIAN
  binding: binds
